Data as given in paper doi:10.1101/2022.02.28.482264.
No constants are given. Whether binding was seen depends on the method and setting. Binding seen in cells or lysates may run through a third protein. Here binding means that the protein was enriched with, or labelled near, the bait; the list need not be complete. For some assays here: Sequences can lack the tags named with a protein.

By UniProt entry, the sequences of proteins in these tests, tags left out.
UniProt O95835: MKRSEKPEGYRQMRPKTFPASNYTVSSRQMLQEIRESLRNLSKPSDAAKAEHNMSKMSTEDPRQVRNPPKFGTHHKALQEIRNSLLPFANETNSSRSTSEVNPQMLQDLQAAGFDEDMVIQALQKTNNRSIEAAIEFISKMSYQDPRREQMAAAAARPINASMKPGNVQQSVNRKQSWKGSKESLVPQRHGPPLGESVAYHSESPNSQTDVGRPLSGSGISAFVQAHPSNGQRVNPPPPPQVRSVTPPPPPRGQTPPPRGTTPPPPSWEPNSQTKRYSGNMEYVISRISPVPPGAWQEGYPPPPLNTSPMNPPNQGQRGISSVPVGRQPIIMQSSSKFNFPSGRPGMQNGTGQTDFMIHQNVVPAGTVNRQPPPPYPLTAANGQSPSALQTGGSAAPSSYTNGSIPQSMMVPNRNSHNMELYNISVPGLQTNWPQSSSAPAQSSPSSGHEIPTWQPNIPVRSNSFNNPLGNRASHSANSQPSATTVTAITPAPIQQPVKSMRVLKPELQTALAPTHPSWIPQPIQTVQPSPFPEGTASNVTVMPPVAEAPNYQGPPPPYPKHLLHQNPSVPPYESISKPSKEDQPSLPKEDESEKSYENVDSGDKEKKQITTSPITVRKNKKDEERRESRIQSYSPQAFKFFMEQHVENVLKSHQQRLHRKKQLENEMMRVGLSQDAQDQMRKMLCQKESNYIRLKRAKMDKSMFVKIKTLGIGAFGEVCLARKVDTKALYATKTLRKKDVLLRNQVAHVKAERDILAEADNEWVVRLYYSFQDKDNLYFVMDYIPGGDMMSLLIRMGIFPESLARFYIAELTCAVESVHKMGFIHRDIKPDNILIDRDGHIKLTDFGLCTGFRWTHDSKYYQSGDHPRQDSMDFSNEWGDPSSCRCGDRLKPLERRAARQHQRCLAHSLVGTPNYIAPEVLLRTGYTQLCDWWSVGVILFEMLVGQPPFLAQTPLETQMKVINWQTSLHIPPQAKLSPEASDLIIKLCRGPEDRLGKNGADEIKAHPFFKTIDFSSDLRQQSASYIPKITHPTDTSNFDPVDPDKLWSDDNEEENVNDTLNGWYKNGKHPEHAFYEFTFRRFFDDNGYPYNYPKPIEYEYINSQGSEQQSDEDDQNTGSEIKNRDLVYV

Key:
[1] = biological target: T1, BirA-tag LATS2 (BioID bait) (UniProt Q9NRM7); test: proximity labelling
T1 sequence: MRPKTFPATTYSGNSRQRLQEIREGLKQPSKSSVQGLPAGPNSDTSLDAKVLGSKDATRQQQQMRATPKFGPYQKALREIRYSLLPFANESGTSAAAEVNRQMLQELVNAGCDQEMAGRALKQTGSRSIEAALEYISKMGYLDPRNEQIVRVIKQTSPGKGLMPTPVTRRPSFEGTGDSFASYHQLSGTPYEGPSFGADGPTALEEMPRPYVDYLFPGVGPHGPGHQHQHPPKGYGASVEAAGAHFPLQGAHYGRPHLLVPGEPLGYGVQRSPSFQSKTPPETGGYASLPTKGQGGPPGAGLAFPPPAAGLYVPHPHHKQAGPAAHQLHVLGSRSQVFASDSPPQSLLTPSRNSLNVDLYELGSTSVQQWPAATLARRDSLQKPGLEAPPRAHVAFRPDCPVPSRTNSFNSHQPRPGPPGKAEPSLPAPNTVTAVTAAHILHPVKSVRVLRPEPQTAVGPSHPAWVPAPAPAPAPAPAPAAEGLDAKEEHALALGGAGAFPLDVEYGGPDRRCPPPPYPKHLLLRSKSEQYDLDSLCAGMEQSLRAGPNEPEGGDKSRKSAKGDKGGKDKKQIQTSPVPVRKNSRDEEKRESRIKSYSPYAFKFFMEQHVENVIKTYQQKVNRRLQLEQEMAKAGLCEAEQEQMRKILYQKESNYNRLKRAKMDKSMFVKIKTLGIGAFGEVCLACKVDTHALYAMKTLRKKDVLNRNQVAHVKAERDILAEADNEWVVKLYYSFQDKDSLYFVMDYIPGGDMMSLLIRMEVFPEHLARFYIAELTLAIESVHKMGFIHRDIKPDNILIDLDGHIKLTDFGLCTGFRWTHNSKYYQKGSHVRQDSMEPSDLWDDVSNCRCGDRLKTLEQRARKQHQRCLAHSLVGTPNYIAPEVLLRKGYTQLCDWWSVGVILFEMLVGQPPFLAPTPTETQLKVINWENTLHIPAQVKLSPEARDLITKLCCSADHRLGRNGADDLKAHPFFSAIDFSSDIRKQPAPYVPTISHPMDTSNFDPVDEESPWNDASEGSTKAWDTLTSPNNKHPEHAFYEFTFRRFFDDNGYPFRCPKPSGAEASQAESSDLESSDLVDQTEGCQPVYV

[2] = biological target: BirA-tag LATS1 (BioID bait) (UniProt O95835); test: proximity labelling

binding [1]: binds
binding [2]: binds
B1: KIRREL1 found by BioID-MS in HEK293A cells (receptor, UniProt Q96J84 17-757)
chain: QGTQTRFSQEPADQTVVAGQRAVLPCVLLNYSGIVQWTKDGLALGMGQGLKAWPRYRVVGSADAGQYNLEITDAELSDDASYECQATEAALRSRRAKLTVLIPPEDTRIDGGPVILLQAGTPHNLTCRAFNAKPAATIIWFRDGTQQEGAVASTELLKDGKRETTVSQLLINPTDLDIGRVFTCRSMNEAIPSGKETSIELDVHHPPTVTLSIEPQTVQEGERVVFTCQATANPEILGYRWAKGGFLIEDAHESRYETNVDYSFFTEPVSCEVHNKVGSTNVSTLVNVHFAPRIVVDPKPTTTDIGSDVTLTCVWVGNPPLTLTWTKKDSNMVLSNSNQLLLKSVTQADAGTYTCRAIVPRIGVAEREVPLYVNGPPIISSEAVQYAVRGDGGKVECFIGSTPPPDRIAWAWKENFLEVGTLERYTVERTNSGSGVLSTLTINNVMEADFQTHYNCTAWNSFGPGTAIIQLEEREVLPVGIIAGATIGASILLIFFFIALVFFLYRRRKGSRKDVTLRKLDIKVETVNREPLTMHSDREDDTASVSTATRVMKAIYSSFKDDVDLKQDLRCDTIDTREEYEMKDPTNGYYNVRAHEDRPSSRAVLYADYRAPGPARFDGRPSSRLSHSSGYAQLNTYSRGPASDYGPEPTPPGPAAPAGTDTTSQLSYENYEKFNSHPFPGAAGYPTYRLGYPQAPPSGLERTPYEAYDPIGKYATATRFSYTSQHSDYGQRFQQRMQTHV
